Data on 5 substances can be found in PMC9667586.

Protein sequences, listed by entry. Tags and fused reporters are not part of them.
UniProt Q16666: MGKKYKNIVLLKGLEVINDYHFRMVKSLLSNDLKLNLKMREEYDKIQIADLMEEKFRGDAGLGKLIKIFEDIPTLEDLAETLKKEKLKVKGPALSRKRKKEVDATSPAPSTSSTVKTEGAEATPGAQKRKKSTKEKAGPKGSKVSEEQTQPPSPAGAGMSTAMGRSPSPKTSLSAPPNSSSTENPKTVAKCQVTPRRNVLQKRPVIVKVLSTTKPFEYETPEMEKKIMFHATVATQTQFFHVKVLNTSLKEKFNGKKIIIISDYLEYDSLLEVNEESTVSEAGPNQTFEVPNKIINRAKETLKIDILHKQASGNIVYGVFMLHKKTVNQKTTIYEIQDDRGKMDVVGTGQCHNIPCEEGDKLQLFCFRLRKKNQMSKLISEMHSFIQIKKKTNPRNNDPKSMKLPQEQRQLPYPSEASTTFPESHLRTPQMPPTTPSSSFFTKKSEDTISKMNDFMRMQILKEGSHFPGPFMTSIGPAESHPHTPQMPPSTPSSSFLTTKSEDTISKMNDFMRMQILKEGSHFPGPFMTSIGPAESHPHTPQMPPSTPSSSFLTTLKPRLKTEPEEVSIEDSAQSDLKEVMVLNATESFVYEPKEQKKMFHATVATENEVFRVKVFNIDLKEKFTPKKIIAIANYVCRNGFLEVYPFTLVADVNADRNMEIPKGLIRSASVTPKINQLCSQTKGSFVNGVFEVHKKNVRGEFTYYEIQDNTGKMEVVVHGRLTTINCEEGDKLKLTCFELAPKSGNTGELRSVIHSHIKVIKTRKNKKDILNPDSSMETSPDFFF
UniProt P19474: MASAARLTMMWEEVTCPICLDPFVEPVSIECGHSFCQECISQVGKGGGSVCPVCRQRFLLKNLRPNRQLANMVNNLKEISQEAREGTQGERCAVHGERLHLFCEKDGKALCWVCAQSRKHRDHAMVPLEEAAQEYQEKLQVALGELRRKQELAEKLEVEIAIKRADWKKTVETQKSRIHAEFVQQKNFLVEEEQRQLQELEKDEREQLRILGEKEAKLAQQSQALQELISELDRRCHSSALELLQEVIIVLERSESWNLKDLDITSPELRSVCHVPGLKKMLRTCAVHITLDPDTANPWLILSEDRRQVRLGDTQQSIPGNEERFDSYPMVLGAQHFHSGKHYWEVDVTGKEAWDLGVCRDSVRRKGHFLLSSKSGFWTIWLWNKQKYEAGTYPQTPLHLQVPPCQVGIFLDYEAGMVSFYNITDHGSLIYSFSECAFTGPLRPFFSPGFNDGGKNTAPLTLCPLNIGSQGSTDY

The target of assay [1] is HA-HuR (wild type) (UniProt Q15717). Put plainly: co-IP; lysates of HEK293 cells transfected with Flag-ARPC1B constructs and HA-IFI16 or HA-HuR constructs; anti-HA antibody (Fig. 5A, B); western blotting.
For assay [2], the target named is HA-IFI16 (wild type) (UniProt Q16666). Described as above.
The target of assay [3] is Actin related protein 2/3 complex, subunit 1B (human (endogenous in GSC 267 and GSC 20)) (UniProt O15143). Kind of assay: co-IP; endogenous reciprocal co-IP in GSC 267 and GSC 20 lysates; antibody on protein A/G magnetic beads, overnight at 4 °C, western blotting. On the technique in general: A western blot detects proteins with antibodies after separation by electrophoresis.

The target in assay [4] is γ-interferon inducible protein 16 (human (endogenous in GSC 267 and GSC 20)) (UniProt Q16666). Kind of assay: co-IP; co-IP of TRIM21 with IFI16 or HuR in GSC lysates, with ARPC1B knock-down (Fig. 5D) or ARPC1B overexpression in GSC 8-11 (Fig. 5E).
Assay [5] has as its target Human antigen R (human (endogenous in GSC 267 and GSC 20)) (UniProt Q15717). Described as above.

These are yes or no findings as the source states them, for the method shown. Binding seen in cells or lysates may run through a third protein. Some binding calls cover weakened binding; strength is not graded here.

With “Flag-ARPC1B (wild type) (from UniProt O15143 1-372)”, the binding entry in assay [1] and in assay [2] was “binds” each time.

Turning to “Flag-ARPC1B amino acid regions 1–242 (from UniProt O15143 1-242) (domain or fragment)”, the binding entry in assay [1] and in assay [2] was “binds” each time.

Regarding “Human antigen R (from UniProt Q15717 1-326)”, the binding result in assay [3] was “binds”.

Consider “tripartite motif containing 21 (from UniProt P19474 1-475)”, for which the binding result in assay [4] and in assay [5] was “binds” throughout.

Regarding “γ-interferon inducible protein 16 (from UniProt Q16666 1-785)”, the binding result in assay [3] is given as “binds”.
